Measurements as given in PMC7276988, “Cryo-EM Structure of the Fork Protection Complex Bound to CMG at a Replication Fork” (Molecular Cell, 2020).
These are yes or no findings as the source states them, for the method shown. For part of these data: Binding seen in cells or lysates may run through a third protein. Some entries that bind do so weakly or less than the wild type.

Amino acid sequences for entries named in this document (tags omitted).
UniProt P29469: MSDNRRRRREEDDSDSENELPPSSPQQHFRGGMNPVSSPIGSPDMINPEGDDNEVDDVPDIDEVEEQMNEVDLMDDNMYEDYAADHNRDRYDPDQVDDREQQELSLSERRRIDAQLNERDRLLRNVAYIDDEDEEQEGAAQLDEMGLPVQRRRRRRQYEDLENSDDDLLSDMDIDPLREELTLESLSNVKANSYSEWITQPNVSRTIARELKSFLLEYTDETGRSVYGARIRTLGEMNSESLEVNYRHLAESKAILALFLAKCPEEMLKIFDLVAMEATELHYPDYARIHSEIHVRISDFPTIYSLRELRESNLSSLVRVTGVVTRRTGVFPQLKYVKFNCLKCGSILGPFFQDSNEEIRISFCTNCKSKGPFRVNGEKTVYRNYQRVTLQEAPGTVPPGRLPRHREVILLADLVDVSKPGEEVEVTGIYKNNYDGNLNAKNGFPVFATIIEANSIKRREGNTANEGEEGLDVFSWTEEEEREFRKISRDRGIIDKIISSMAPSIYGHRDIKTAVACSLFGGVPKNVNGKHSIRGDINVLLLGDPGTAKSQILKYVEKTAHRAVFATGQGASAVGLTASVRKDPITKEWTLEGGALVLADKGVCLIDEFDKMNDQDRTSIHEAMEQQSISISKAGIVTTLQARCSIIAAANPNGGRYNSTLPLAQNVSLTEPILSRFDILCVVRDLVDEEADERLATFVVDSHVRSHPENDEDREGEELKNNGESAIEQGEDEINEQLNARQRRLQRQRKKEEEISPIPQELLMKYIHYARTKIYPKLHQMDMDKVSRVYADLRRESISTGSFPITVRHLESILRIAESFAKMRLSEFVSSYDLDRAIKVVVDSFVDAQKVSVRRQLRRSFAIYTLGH
UniProt P53091: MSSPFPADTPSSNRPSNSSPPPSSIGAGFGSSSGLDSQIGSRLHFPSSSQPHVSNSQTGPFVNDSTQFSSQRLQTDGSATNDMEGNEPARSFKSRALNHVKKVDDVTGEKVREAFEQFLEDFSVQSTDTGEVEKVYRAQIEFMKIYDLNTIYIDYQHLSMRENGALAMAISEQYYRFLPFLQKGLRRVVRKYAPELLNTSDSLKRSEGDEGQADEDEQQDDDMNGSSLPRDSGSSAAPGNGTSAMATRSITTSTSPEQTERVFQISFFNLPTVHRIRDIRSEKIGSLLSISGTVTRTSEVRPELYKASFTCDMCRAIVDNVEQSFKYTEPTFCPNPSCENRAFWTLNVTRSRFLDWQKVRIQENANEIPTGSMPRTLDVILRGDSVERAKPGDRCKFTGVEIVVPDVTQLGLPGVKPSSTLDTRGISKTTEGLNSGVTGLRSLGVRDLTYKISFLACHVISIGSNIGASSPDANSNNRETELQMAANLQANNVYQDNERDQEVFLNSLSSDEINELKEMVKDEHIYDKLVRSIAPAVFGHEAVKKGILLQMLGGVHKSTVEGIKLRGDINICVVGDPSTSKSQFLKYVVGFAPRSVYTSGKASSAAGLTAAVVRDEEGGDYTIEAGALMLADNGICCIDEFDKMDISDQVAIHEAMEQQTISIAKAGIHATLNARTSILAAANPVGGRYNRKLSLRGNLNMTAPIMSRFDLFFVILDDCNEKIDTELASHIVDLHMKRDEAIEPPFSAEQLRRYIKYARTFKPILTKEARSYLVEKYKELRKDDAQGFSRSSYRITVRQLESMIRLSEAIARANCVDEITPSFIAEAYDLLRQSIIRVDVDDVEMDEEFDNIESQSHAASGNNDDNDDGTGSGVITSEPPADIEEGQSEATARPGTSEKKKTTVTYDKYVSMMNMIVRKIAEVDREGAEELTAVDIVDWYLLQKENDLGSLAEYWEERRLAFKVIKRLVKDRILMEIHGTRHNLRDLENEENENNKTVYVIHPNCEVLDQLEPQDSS

Assays:
[1] = biological target: T1, Tof1 (S. cerevisiae, UniProt P53840 1-1238, phosphorylated (sites not given)); assay: cryo-EM structure; reconstituted from purified CMG, fork DNA, Csm3/Tof1, Ctf4, Mrc1 with AMP-PNP; glycerol gradient fixation (glutaraldehyde and BS3); both purified
T1 construct: Tof1, S. cerevisiae; residues 13-781 are resolved in the map; The Tof1 chain of m2; source: S. cerevisiae, overexpressed with Csm3, purified as Csm3/Tof1; in XL-MS part of the co-expressed, co-purified complex (yJY74)
T1 sequence: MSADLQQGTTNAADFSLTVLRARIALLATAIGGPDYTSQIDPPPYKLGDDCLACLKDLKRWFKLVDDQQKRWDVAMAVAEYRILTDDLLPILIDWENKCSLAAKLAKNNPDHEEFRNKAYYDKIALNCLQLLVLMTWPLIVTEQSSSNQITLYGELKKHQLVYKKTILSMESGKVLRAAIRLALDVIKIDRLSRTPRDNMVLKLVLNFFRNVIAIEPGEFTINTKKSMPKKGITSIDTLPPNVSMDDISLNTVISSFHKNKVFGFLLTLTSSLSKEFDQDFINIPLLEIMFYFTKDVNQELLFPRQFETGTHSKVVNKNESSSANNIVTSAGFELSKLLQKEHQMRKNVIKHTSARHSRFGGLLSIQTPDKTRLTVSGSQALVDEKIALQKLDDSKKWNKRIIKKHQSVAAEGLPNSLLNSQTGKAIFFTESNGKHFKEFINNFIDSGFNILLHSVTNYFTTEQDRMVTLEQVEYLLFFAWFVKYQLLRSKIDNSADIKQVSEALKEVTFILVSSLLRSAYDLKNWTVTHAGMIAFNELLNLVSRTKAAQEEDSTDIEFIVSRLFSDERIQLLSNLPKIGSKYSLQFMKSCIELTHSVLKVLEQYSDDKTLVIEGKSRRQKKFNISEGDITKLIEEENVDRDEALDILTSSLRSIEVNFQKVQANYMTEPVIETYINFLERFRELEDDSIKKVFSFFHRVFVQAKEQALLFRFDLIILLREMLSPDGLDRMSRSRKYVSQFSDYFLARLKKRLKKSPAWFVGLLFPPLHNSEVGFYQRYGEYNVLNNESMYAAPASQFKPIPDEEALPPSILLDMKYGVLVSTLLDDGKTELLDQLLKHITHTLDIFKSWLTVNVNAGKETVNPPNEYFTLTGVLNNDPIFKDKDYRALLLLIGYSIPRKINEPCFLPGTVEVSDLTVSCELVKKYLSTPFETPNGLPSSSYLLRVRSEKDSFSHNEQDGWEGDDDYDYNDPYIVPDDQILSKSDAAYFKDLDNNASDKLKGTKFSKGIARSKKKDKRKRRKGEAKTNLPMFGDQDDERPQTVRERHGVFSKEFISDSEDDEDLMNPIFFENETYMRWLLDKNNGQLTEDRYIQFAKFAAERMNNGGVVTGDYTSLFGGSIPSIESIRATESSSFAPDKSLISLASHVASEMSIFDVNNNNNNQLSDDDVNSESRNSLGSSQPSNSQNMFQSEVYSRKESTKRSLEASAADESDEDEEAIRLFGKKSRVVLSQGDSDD

[2] = biological target: T2, Tof1^(K400A, R401A, K404A) (S. cerevisiae) (UniProt P53840); assay: co-purification of co-expressed subunits; mutant heterodimers purified (Figure S10A); Csm3/Tof1 purification: Calmodulin Sepharose with TEV elution, MonoQ, Superdex 200 gel filtration
T2 sequence: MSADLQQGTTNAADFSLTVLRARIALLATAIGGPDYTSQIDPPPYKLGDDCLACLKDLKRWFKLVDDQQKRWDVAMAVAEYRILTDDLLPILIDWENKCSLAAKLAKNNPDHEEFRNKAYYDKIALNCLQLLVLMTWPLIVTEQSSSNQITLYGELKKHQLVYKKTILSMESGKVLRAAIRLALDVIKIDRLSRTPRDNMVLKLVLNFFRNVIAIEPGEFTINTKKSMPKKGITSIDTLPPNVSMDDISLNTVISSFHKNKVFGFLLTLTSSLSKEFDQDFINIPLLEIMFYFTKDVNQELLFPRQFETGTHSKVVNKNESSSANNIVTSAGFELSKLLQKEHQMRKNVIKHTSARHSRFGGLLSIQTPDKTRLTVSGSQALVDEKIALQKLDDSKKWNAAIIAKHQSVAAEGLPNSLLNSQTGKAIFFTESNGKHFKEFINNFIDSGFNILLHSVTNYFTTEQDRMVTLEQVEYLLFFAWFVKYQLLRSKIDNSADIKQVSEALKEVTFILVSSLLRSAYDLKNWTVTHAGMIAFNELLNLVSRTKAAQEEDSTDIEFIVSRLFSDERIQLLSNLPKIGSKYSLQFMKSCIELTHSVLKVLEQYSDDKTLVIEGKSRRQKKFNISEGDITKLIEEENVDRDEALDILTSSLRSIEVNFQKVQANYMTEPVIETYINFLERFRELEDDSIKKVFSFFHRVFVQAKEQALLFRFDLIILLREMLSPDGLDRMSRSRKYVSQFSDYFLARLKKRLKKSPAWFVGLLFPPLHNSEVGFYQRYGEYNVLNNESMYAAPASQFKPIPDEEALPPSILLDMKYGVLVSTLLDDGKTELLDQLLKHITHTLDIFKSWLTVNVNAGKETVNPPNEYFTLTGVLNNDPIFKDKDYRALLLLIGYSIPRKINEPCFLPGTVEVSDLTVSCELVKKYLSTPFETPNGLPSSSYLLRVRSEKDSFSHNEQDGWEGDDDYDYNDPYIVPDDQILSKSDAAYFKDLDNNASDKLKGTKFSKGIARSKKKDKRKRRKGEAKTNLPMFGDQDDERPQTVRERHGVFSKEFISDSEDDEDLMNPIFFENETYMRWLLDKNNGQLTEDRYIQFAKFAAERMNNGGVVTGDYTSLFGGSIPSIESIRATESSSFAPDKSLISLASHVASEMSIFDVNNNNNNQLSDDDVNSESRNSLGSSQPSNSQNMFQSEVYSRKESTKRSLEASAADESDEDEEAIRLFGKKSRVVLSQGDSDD

[3] = biological target: Mcm2 (S. cerevisiae) (UniProt P29469); assay: cryo-EM structure; reconstituted from purified CMG, fork DNA, Csm3/Tof1, Ctf4, Mrc1 with AMP-PNP; glycerol gradient fixation (glutaraldehyde and BS3); both purified
[4] = biological target: Mcm6 (S. cerevisiae) (UniProt P53091); assay: as above
[5] = biological target: T3, Csm3 (S. cerevisiae) (UniProt Q04659); assay: cross-linking; XL-MS: co-expressed complex of CMG, Ctf4, Csm3/Tof1 and Mrc1, calmodulin eluate cross-linked with 100-fold excess of DSBU, 60 min, room temperature; trypsin, LC-MS/MS, MeroX; cross-links residues within about 30 Å
T3 sequence: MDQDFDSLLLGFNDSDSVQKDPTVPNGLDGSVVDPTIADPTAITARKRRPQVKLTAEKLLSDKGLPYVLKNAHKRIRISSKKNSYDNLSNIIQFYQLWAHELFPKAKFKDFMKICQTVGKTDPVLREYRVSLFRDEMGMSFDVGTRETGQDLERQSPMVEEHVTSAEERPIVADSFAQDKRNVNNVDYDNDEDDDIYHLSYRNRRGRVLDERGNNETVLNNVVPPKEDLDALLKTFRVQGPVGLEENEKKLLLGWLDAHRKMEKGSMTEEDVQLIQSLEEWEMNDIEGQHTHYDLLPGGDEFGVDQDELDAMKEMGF

[6] = biological target: T1, Tof1; assay: co-purification of co-expressed subunits; mutant heterodimers purified (Figure S10A); Csm3/Tof1 purification: Calmodulin Sepharose with TEV elution, MonoQ, Superdex 200 gel filtration

B1: Csm3 (natural protein, S. cerevisiae)
chain: MDQDFDSLLLGFNDSDSVQKDPTVPNGLDGSVVDPTIADPTAITARKRRPQVKLTAEKLLSDKGLPYVLKNAHKRIRISSKKNSYDNLSNIIQFYQLWAHELFPKAKFKDFMKICQTVGKTDPVLREYRVSLFRDEMGMSFDVGTRETGQDLERQSPMVEEHVTSAEERPIVADSFAQDKRNVNNVDYDNDEDDDIYHLSYRNRRGRVLDERGNNETVLNNVVPPKEDLDALLKTFRVQGPVGLEENEKKLLLGWLDAHRKMEKGSMTEEDVQLIQSLEEWEMNDIEGQHTHYDLLPGGDEFGVDQDELDAMKEMGF
notes: Csm3, S. cerevisiae; residues 46-139 are resolved in the map; The Csm3 chain of m2; source: S. cerevisiae, overexpressed with Tof1, purified as Csm3/Tof1; in XL-MS part of the co-expressed, co-purified complex (yJY74)
With B1 the binding [1] was “binds” and the binding [2] was “binds”.

B2: Tof1 (protein, UniProt P53840 1-1238)
chain: MSADLQQGTTNAADFSLTVLRARIALLATAIGGPDYTSQIDPPPYKLGDDCLACLKDLKRWFKLVDDQQKRWDVAMAVAEYRILTDDLLPILIDWENKCSLAAKLAKNNPDHEEFRNKAYYDKIALNCLQLLVLMTWPLIVTEQSSSNQITLYGELKKHQLVYKKTILSMESGKVLRAAIRLALDVIKIDRLSRTPRDNMVLKLVLNFFRNVIAIEPGEFTINTKKSMPKKGITSIDTLPPNVSMDDISLNTVISSFHKNKVFGFLLTLTSSLSKEFDQDFINIPLLEIMFYFTKDVNQELLFPRQFETGTHSKVVNKNESSSANNIVTSAGFELSKLLQKEHQMRKNVIKHTSARHSRFGGLLSIQTPDKTRLTVSGSQALVDEKIALQKLDDSKKWNKRIIKKHQSVAAEGLPNSLLNSQTGKAIFFTESNGKHFKEFINNFIDSGFNILLHSVTNYFTTEQDRMVTLEQVEYLLFFAWFVKYQLLRSKIDNSADIKQVSEALKEVTFILVSSLLRSAYDLKNWTVTHAGMIAFNELLNLVSRTKAAQEEDSTDIEFIVSRLFSDERIQLLSNLPKIGSKYSLQFMKSCIELTHSVLKVLEQYSDDKTLVIEGKSRRQKKFNISEGDITKLIEEENVDRDEALDILTSSLRSIEVNFQKVQANYMTEPVIETYINFLERFRELEDDSIKKVFSFFHRVFVQAKEQALLFRFDLIILLREMLSPDGLDRMSRSRKYVSQFSDYFLARLKKRLKKSPAWFVGLLFPPLHNSEVGFYQRYGEYNVLNNESMYAAPASQFKPIPDEEALPPSILLDMKYGVLVSTLLDDGKTELLDQLLKHITHTLDIFKSWLTVNVNAGKETVNPPNEYFTLTGVLNNDPIFKDKDYRALLLLIGYSIPRKINEPCFLPGTVEVSDLTVSCELVKKYLSTPFETPNGLPSSSYLLRVRSEKDSFSHNEQDGWEGDDDYDYNDPYIVPDDQILSKSDAAYFKDLDNNASDKLKGTKFSKGIARSKKKDKRKRRKGEAKTNLPMFGDQDDERPQTVRERHGVFSKEFISDSEDDEDLMNPIFFENETYMRWLLDKNNGQLTEDRYIQFAKFAAERMNNGGVVTGDYTSLFGGSIPSIESIRATESSSFAPDKSLISLASHVASEMSIFDVNNNNNNQLSDDDVNSESRNSLGSSQPSNSQNMFQSEVYSRKESTKRSLEASAADESDEDEEAIRLFGKKSRVVLSQGDSDD
modifications: phosphorylated (sites not given)
For B2, the binding [3] was “binds”, the binding [4] was “binds” and the binding [5] was “binds”.

B3: Csm3^(R49A, K53A) (protein, UniProt Q04659 1-317)
chain: MDQDFDSLLLGFNDSDSVQKDPTVPNGLDGSVVDPTIADPTAITARKRAPQVALTAEKLLSDKGLPYVLKNAHKRIRISSKKNSYDNLSNIIQFYQLWAHELFPKAKFKDFMKICQTVGKTDPVLREYRVSLFRDEMGMSFDVGTRETGQDLERQSPMVEEHVTSAEERPIVADSFAQDKRNVNNVDYDNDEDDDIYHLSYRNRRGRVLDERGNNETVLNNVVPPKEDLDALLKTFRVQGPVGLEENEKKLLLGWLDAHRKMEKGSMTEEDVQLIQSLEEWEMNDIEGQHTHYDLLPGGDEFGVDQDELDAMKEMGF
In the case of B3, the binding [6] is reported as “binds” and the binding [2] is reported as “binds”.

B4: Csm3^(K47A, R48A, R49A, Q51A, K53A) (protein, UniProt Q04659 1-317)
chain: MDQDFDSLLLGFNDSDSVQKDPTVPNGLDGSVVDPTIADPTAITARAAAPAVALTAEKLLSDKGLPYVLKNAHKRIRISSKKNSYDNLSNIIQFYQLWAHELFPKAKFKDFMKICQTVGKTDPVLREYRVSLFRDEMGMSFDVGTRETGQDLERQSPMVEEHVTSAEERPIVADSFAQDKRNVNNVDYDNDEDDDIYHLSYRNRRGRVLDERGNNETVLNNVVPPKEDLDALLKTFRVQGPVGLEENEKKLLLGWLDAHRKMEKGSMTEEDVQLIQSLEEWEMNDIEGQHTHYDLLPGGDEFGVDQDELDAMKEMGF
In the case of B4, the binding [6] is reported as “binds” and the binding [2] is reported as “binds”.
